According to patent publication US7906486B2, “Method of treating or preventing tissue deterioration, injury or damage due to disease of mucosa” (SciClone Pharmaceuticals, Inc., priority 2007, dated 2011):
Values joined by “and” are separate entries in the source; they are usually repeats but may differ in a detail not shown here. Identical values can stand only once. Further values from the same series stand in other lists.

Assay: Weights and survival (Example 1, SCI-01)
Format: in vivo, Syrian Golden Hamsters
Description: All animals were weighed daily and their survival recorded, in order to assess possible differences in animal weight among treatment groups as an indication for mucositis severity and/or possible toxicity resulting from the treatments.
The mean daily percent weight change data was evaluated. The saline (PBS) treated control hamsters gained an average of 70.4% of their starting weight during the study. Hamsters in the group receiving SCV-07 at 1 ug/kg on days −1 to 16 gained an average of 68.4% of their starting weight during the study. Hamsters in the group receiving SCV-07 at 10 ug/kg on days −1 to 16 gained an average of 70.3% of their starting weight during the study. Hamsters in the group receiving SCV-07 at 100 ug/kg on days −1 to 16 gained an average of 82.0% of their starting weight during the study. The significance of these differences was evaluated by calculating the area-under-the-curve (AUC) for the weight gain of each animal, and then comparing the different treatment groups using a One-Way ANOVA test.

With N[C@H](CCC(=O)N[C@@H](Cc1c[nH]c2ccccc12)C(=O)O)C(=O)O [SCV-07, γ-D-glutamyl-L-tryptophan] the Animal weight (Group 3, SCV-07 10 ug/kg sc qd, Day 15) was 112 and 110 and 101 and 105 and 111 and 120 and 121 and 131, the Animal weight (Group 3, SCV-07 10 ug/kg sc qd, Day 16) was 116 and 102 and 111 and 107 and 115 and 124 and 134 and the Animal weight (Group 3, SCV-07 10 ug/kg sc qd, Day 17) was 116 and 107 and 102 and 104 and 111 and 123 and 125 and 133. The Animal weight (Group 3, SCV-07 10 ug/kg sc qd, Day 18) was 122 and 113 and 107 and 117 and 130 and 132 and 142, the Animal weight (Group 3, SCV-07 10 ug/kg sc qd, Day 19) was 124 and 115 and 111 and 116 and 119 and 132 and 137 and 146 and the Animal weight (Group 3, SCV-07 10 ug/kg sc qd, Day 20) was 123 and 117 and 112 and 115 and 120 and 134 and 139 and 147. The Animal weight (Group 3, SCV-07 10 ug/kg sc qd, Day 21) was 122 and 119 and 113 and 120 and 136 and 139 and 149, the Animal weight (Group 3, SCV-07 10 ug/kg sc qd, Day 22) was 123 and 121 and 115 and 119 and 137 and 141 and 150 and the Animal weight (Group 3, SCV-07 10 ug/kg sc qd, Day 23) was 126 and 122 and 117 and 125 and 140 and 145 and 155. The Animal weight (Group 3, SCV-07 10 ug/kg sc qd, Day 24) was 126 and 120 and 122 and 125 and 139 and 146 and 155, the Animal weight (Group 3, SCV-07 10 ug/kg sc qd, Day 25) was 132 and 128 and 122 and 127 and 145 and 146 and 160 and the Animal weight (Group 3, SCV-07 10 ug/kg sc qd, Day 26) was 132 and 130 and 123 and 127 and 129 and 145 and 153 and 161. For the same molecule, the Animal weight (Group 3, SCV-07 10 ug/kg sc qd, Day 27) was 133 and 120 and 131 and 132 and 149 and 155 and 165, the Animal weight (Group 3, SCV-07 10 ug/kg sc qd, Day 28) was 137 and 129 and 134 and 135 and 151 and 167 and the Animal weight (Group 3, SCV-07 10 ug/kg sc qd, Day -1) was 81 and 87 and 85 and 76 and 90 and 91 and 86. The Animal weight (Group 4, SCV-07 100 ug/kg sc qd, Day 0) was 87 and 91 and 101 and 95 and 90 and 88 and 100, the Animal weight (Group 4, SCV-07 100 ug/kg sc qd, Day 1) was 87 and 98 and 101 and 93 and 86 and 89 and 99 and the Animal weight (Group 4, SCV-07 100 ug/kg sc qd, Day 2) was 91 and 94 and 108 and 98 and 92 and 106. The Animal weight (Group 4, SCV-07 100 ug/kg sc qd, Day 3) was 93 and 95 and 110 and 101 and 97 and 109 and 94, the Animal weight (Group 4, SCV-07 100 ug/kg sc qd, Day 4) was 96 and 98 and 111 and 103 and 100 and 99 and 97 and the Animal weight (Group 4, SCV-07 100 ug/kg sc qd, Day 5) was 100 and 101 and 119 and 104 and 106 and 118 and 105. The Animal weight (Group 4, SCV-07 100 ug/kg sc qd, Day 6) was 103 and 104 and 123 and 115 and 106 and 109 and 119, the Animal weight (Group 4, SCV-07 100 ug/kg sc qd, Day 7) was 105 and 124 and 118 and 108 and 111 and 122 and the Animal weight (Group 4, SCV-07 100 ug/kg sc qd, Day 8) was 109 and 127 and 118 and 111 and 115 and 126 and 110. The Animal weight (Group 4, SCV-07 100 ug/kg sc qd, Day 9) was 111 and 112 and 132 and 124 and 114 and 120 and 127, the Animal weight (Group 4, SCV-07 100 ug/kg sc qd, Day 10) was 110 and 111 and 133 and 121 and 115 and 118 and 128 and 113 and the Animal weight (Group 4, SCV-07 100 ug/kg sc qd, Day 11) was 117 and 119 and 137 and 130 and 120 and 129 and 136 and 118. For the same molecule, the Animal weight (Group 4, SCV-07 100 ug/kg sc qd, Day 12) was 119 and 117 and 138 and 131 and 123 and 137 and 121, the Animal weight (Group 4, SCV-07 100 ug/kg sc qd, Day 13) was 117 and 115 and 134 and 132 and 121 and 127 and 133 and 118 and the Animal weight (Group 4, SCV-07 100 ug/kg sc qd, Day 14) was 117 and 118 and 139 and 125 and 132 and 138 and 120. The Animal weight (Group 4, SCV-07 100 ug/kg sc qd, Day 15) was 116 and 117 and 138 and 126 and 133 and 139 and 119, the Animal weight (Group 4, SCV-07 100 ug/kg sc qd, Day 16) was 118 and 120 and 141 and 143 and 129 and 136 and 142 and 125 and the Animal weight (Group 4, SCV-07 100 ug/kg sc qd, Day 17) was 118 and 119 and 142 and 143 and 130 and 136 and 140 and 125. For the same molecule, the Animal weight (Group 4, SCV-07 100 ug/kg sc qd, Day 18) was 124 and 126 and 151 and 152 and 137 and 144 and 148 and 131, the Animal weight (Group 4, SCV-07 100 ug/kg sc qd, Day 19) was 124 and 126 and 153 and 155 and 139 and 149 and 151 and 134 and the Animal weight (Group 4, SCV-07 100 ug/kg sc qd, Day 20) was 124 and 129 and 154 and 159 and 141 and 148 and 152 and 136. For the same molecule, the Animal weight (Group 4, SCV-07 100 ug/kg sc qd, Day 21) was 123 and 132 and 156 and 159 and 143 and 150 and 153 and 137, the Animal weight (Group 4, SCV-07 100 ug/kg sc qd, Day 22) was 124 and 134 and 157 and 162 and 147 and 154 and 156 and 138 and the Animal weight (Group 4, SCV-07 100 ug/kg sc qd, Day 23) was 124 and 135 and 161 and 164 and 151 and 156 and 141. For the same molecule, the Animal weight (Group 4, SCV-07 100 ug/kg sc qd, Day 24) was 124 and 135 and 167 and 150 and 160 and 157 and 142, the Animal weight (Group 4, SCV-07 100 ug/kg sc qd, Day 25) was 127 and 138 and 167 and 173 and 156 and 165 and 164 and 147 and the Animal weight (Group 4, SCV-07 100 ug/kg sc qd, Day 26) was 127 and 140 and 175 and 169 and 158 and 165 and 163 and 147. The Animal weight (Group 4, SCV-07 100 ug/kg sc qd, Day 27) was 129 and 143 and 169 and 175 and 160 and 167 and 164 and 149, the Animal weight (Group 4, SCV-07 100 ug/kg sc qd, Day 28) was 131 and 147 and 172 and 182 and 166 and 168 and 152 and the Animal weight (Group 4, SCV-07 100 ug/kg sc qd, Day -1) was 84 and 87 and 97 and 88 and 86 and 95 and 85.
